According to patent US7060292B2, “Lipid structures and uses thereof” (GESynthesis, Inc., priority 2001, dated 2006):

Experiment: β-estradiol entry into and extraction from bilayer of NBD-C6-HPC vesicles
Type: physicochemical

## OC[C@H]1O[C@@H]2O[C@H]3[C@H](O)[C@@H](O)[C@@H](O[C@H]4[C@H](O)[C@@H](O)[C@@H](O[C@H]5[C@H](O)[C@@H](O)[C@@H](O[C@H]6[C@H](O)[C@@H](O)[C@@H](O[C@H]7[C@H](O)[C@@H](O)[C@@H](O[C@H]8[C@H](O)[C@@H](O)[C@@H](O[C@H]1[C@H](O)[C@H]2O)O[C@@H]8CO)O[C@@H]7CO)O[C@@H]6CO)O[C@@H]5CO)O[C@@H]4CO)O[C@@H]3CO [β-CD, β-cyclodextrin]
Without β-estradiol
  change in fluorescence intensity on addition alone: did not alter the fluorescence intensity

## C[C@]12CC[C@@H]3c4ccc(O)cc4CC[C@H]3[C@@H]1CC[C@@H]2O [β-estradiol]
1 μl of 40 mM in DMSO
  change in fluorescence on addition: Fluorescence decreased
5 μl of 10 mM β-CD in water, extraction from the vesicles
  change in fluorescence on addition of β-CD after β-estradiol: increase in fluorescence
